Some entries share one result that the patent states for a list of compounds.
Legend:
Format in all cases: in vivo
Heliothis virescens = assay: Tobacco budworm microtiter plate diet test, egg and larval mortality; settings: 2500 ppm; 5 days; in comparison with untreated controls
Description: B.11 Tobacco Budworm (Heliothis virescens) I
For evaluating control of tobacco budworm (Heliothis virescens) the test unit consisted of 96-well-microtiter plates containing an insect diet and 15-25 H. virescens eggs. The compounds were formulated using a solution containing 75% v/v water and 25% v/v DMSO. Different concentrations of formulated compounds were sprayed onto the insect diet at 10 μl, using a custom built micro atomizer, at two replications.
(§1) After application, microtiter plates were incubated at about 28±1° C. and about 80±5% relative humidity for 5 days. Egg and larval mortality was then visually assessed.

Myzus persicae = assay: Green peach aphid systemic test, artificial diet in 96-well plates; settings: 2500 ppm; 3 days; in comparison with untreated controls
Excerpt: B.4 Green Peach Aphid (Myzus persicae)
For evaluating control of green peach aphid (Myzus persicae) through systemic means the test unit consisted of 96-well-microtiter plates containing liquid artificial diet under an artificial membrane.
The compounds were formulated using a solution containing 75% v/v water and 25% v/v DMSO. Different concentrations of formulated compounds were pipetted into the aphid diet, using a custom built pipetter, at two replications.
After application, 5-8 adult aphids were placed on the artificial membrane inside the microtiter plate wells. The aphids were then allowed to suck on the treated aphid diet and incubated at about 23±1° C. and about 50±5% relative humidity for 3 days. Aphid mortality and fecundity was then visually assessed.

Anthonomus grandis = assay: Boll weevil microtiter plate diet test, egg and larval mortality; settings: 2500 ppm; 5 days; in comparison with untreated controls
Description: B.12 Boll Weevil (Anthonomus grandis)
For evaluating control of boll weevil (Anthonomusgrandis) the test unit consisted of 24-well-microtiter plates containing an insect diet and 20-30 A. grandis eggs.
The compounds were formulated using a solution containing 75% v/v water and 25% v/v DMSO. Different concentrations of formulated compounds were sprayed onto the insect diet at 20 μl, using a custom built micro atomizer, at two replications.
After application, microtiter plates were incubated at about 23±1° C. and about 50±5% relative humidity for 5 days. Egg and larval mortality was then visually assessed.

Megoura viciae = assay: Vetch aphid leaf disk test in 24-well plates; settings: 2500 ppm; 5 days; in comparison with untreated controls
Description: B.10 Vetch Aphid (Megoura viciae)
For evaluating control of vetch aphid (Megoura viciae) through contact or systemic means the test unit consisted of 24-well-microtiter plates containing broad bean leaf disks.
The compounds were formulated using a solution containing 75% v/v water and 25% v/v DMSO. Different concentrations of formulated compounds were sprayed onto the leaf disks at 2.5 μl, using a custom built micro atomizer, at two replications.
After application, the leaf disks were air-dried and 5-8 adult aphids placed on the leaf disks inside the microtiter plate wells. The aphids were then allowed to suck on the treated leaf disks and incubated at about 23±1° C. and about 50±5% relative humidity for 5 days. Aphid mortality and fecundity was then visually assessed.

Tetranychus kanzawai = assay: Red spider mite spray test on cowpea beans; settings: 500 ppm; after 72 h; in comparison with untreated controls
Description: B.14 Red Spider Mite (Tetranychus kanzawai)
The active compound was dissolved at the desired concentration in a mixture of 1:1 (v/v) distilled water:acetone. A surfactant (Alkamuls® EL 620) was added at the rate of 0.1% (v/v).
Potted cowpea beans of 7-10 days of age were cleaned with tap water and sprayed with 5 ml of the test solution using air driven hand atomizer. The treated plants were allowed to air dry and afterwards inculated with 20 or more mites by clipping a cassava leaf section with known mite population. Treated plants were placed inside a holding room at about 25-27° C. and about 50-60% relatice humidity.
Mortality was determined by counting the live mites 72 HAT. Percent mortality was assessed after 72 h.

Spodoptera eridania = assay: Southern armyworm spray test on lima bean plants; settings: 1 ppm; 4 days after treatment; in comparison with untreated controls
Description: B.9 Southern Armyworm (Spodoptera eridania)
The active compounds were formulated in cyclohexanone as a 10,000 ppm solution supplied in tubes. The tubes were inserted into an automated electrostatic sprayer equipped with an atomizing nozzle and they served as stock solutions for which lower dilutions were made in 50% acetone:50% water (v/v). A nonionic surfactant (Kinetic®) was included in the solution at a volume of 0.01% (v/v).
Lima bean plants (variety Sieva) were grown 2 plants to a pot and selected for treatment at the 1st true leaf stage. Test solutions were sprayed onto the foliage by an automated electrostatic plant sprayer equipped with an atomizing spray nozzle. The plants were dried in the sprayer fume hood and then removed from the sprayer. Each pot was placed into perforated plastic bags with a zip closure. About 10 to 11 armyworm larvae were placed into the bag and the bags zipped closed. Test plants were maintained in a growth room at about 25° C. and about 20-40% relative humidity for 4 days, avoiding direct exposure to fluorescent light (24 hour photoperiod) to prevent trapping of heat inside the bags. Mortality and reduced feeding were assessed 4 days after treatment, compared to untreated control plants.

Ceratitis capitata = assay: Mediterranean fruitfly microtiter plate diet test, egg and larval mortality; settings: 2500 ppm; 5 days; in comparison with untreated controls
Description: B.5 Mediterranean Fruitfly (Ceratitis capitata)
For evaluating control of Mediterranean fruitfly (Ceratitis capitata) the test unit consisted of microtiter plates containing an insect diet and 50-80 C. capitata eggs.
The compounds were formulated using a solution containing 75% v/v water and 25% v/v DMSO. Different concentrations of formulated compounds were sprayed onto the insect diet at 5 μl, using a custom built micro atomizer, at two replications.
as §1

Plutella xylostella = assay: Diamond back moth leaf dip test; settings: 500 ppm; recorded 24, 72 and 120 hours after treatment; in comparison with untreated controls
Description: B.3 Diamond Back Moth (Plutella xylostella)
Leaves of Chinese cabbage were dipped in test solution and air-dried. Treated leaves were placed in petri dished lined with moist filter paper. Mortality was recorded 24, 72, and 120 hours after treatment.

Dichromothrips corbetti = assay: Orchid thrips floral-immersion test; settings: 500 ppm; after 4 days; in comparison with untreated controls
Description: B.6 Orchid Thrips (Dichromothrips corbetti)
Dichromothrips corbetti adults used for bioassay were obtained from a colony maintained continuously under laboratory conditions. For testing purposes, the test compound was diluted to a concentration of 500 ppm (wt compound: vol diluent) in a 1:1 mixture of acetone:water (vol:vol), plus 0.01% vol/vol Kinetic® surfactant.
Thrips potency of each compound was evaluated by using a floral-immersion technique. Plastic petri dishes were used as test arenas. All petals of individual, intact orchid flowers were dipped into treatment solution and allowed to dry. Treated flowers were placed into individual petri dishes along with 10-15 adult thrips. The petri dishes were then covered with lids. All test arenas were held under continuous light and a temperature of about 28° C. for duration of the assay. After 4 days, the numbers of live thrips were counted on each flower, and along inner walls of each petri dish. The level of thrips mortality was extrapolated from pre-treatment thrips numbers.

Nephotettix virescens = assay: Rice green leafhopper spray test on rice seedlings; settings: 500 ppm; after 72 hours; in comparison with untreated controls
Description: B.7 Rice Green Leafhopper (Nephotettix virescens)
Rice seedlings were cleaned and washed 24 hours before spraying. The active compounds were formulated in 50:50 acetone:water (vol:vol), and 0.1% vol/vol surfactant (EL 620) was added. Potted rice seedlings were sprayed with 5 ml test solution, air dried, placed in cages and inoculated with 10 adults. Treated rice plants were kept at about 28-29° C. and relative humidity of about 50-60%. Percent mortality was recorded after 72 hours.

Aphis craccivora = assay: Cowpea aphid spray test on potted cowpea plants; settings: 500 ppm; assessed after 24, 72 and 120 hours; in comparison with untreated controls
Description: B.2 Cowpea Aphid (Aphis craccivora)
Potted cowpea plants colonized with approximately 100-150 aphids of various stages were sprayed after the pest population had been recorded. Population reduction was assessed after 24, 72, and 120 hours.

| Compound | mortality (Heliothis virescens) | mortality (Myzus persicae) | mortality (Anthonomus grandis) | mortality (Megoura viciae) | also measured |
| --- | --- | --- | --- | --- | --- |
| Cc1cc(C2=NSC(c3cc(Cl)c(Cl)c(Cl)c3)(C(F)(F)F)C2)ccc1C(=O)OC(C)(C)C (stereo not shown) [Compound 2-122] | at least 75% | – | – | – | – |
| COc1cc(C2=NSC(c3cc(Cl)c(Cl)c(Cl)c3)(C(F)(F)F)C2)ccc1C(=O)O (stereo not shown) [Compound 2-168] | – | at least 75% | at least 75% | – | – |
| CSc1cc(C2=NSC(c3cc(Cl)c(Cl)c(Cl)c3)(C(F)(F)F)C2)ccc1C(=O)O (stereo not shown) [Compound 2-158] | at least 75% | – | at least 75% | – | – |
| O=C(O)c1ccc(C2=NSC(c3cc(Cl)cc(Cl)c3)(C(F)(F)F)C2)cc1F (stereo not shown) [Compound 2-17] | at least 75% | – | – | – | – |
| Cc1cc(C2=NSC(c3cc(Cl)cc(C(F)(F)F)c3)(C(F)(F)F)C2)ccc1C(=O)OC(C)(C)C (stereo not shown) [Compound 2-174] | at least 75% | – | – | – | – |
| O=C(O)c1ccc(C2=NSC(c3cc(Cl)c(Cl)c(Cl)c3)(C(F)(F)F)C2)cc1Cl (stereo not shown) [Compound 2-159] | – | at least 75% | – | at least 75% | – |
| Cc1cc(C2=NSC(c3cc(Cl)cc(Cl)c3)(C(F)(F)F)C2)ccc1C(=O)N1CCS(=O)(=O)CC1 (stereo not shown) [Compound 2-79] | – | – | at least 75% | at least 75% | – |
| Cc1cc(C2=NSC(c3cc(Cl)c(F)c(Cl)c3)(C(F)(F)F)C2)ccc1C(=O)O (stereo not shown) [Compound 2-161] | at least 75% | – | – | – | – |
| Cc1cc(C2=NSC(c3cc(Cl)cc(Cl)c3)(C(F)(F)F)C2F)ccc1C(=O)NCc1ccccn1 (stereo not shown) [Compound 5-2] | at least 75% | at least 75% | at least 75% | at least 75% | mortality (Tetranychus kanzawai): at least 75%; mortality (Spodoptera eridania): at least 75%; mortality (Ceratitis capitata): at least 75%; mortality (Plutella xylostella): at least 75%; mortality (Dichromothrips corbetti): at least 75%; mortality (Nephotettix virescens): at least 75%; mortality (Aphis craccivora): at least 75% |
| COC(=O)c1ccc(C2=NSC(c3cc(Cl)cc(Cl)c3)(C(F)(F)F)C2)cc1Cl (stereo not shown) [Compound 2-24] | – | at least 75% | – | at least 75% | – |
| Cc1cc(C2=NSC(c3cc(Cl)cc(Cl)c3)(C(F)(F)F)C2F)ccc1C(=O)NC1CS(=O)(=O)C1 (stereo not shown) [Compound 5-3] | at least 75% | at least 75% | at least 75% | at least 75% | mortality (Tetranychus kanzawai): at least 75%; mortality (Spodoptera eridania): at least 75%; mortality (Ceratitis capitata): at least 75%; mortality (Plutella xylostella): at least 75%; mortality (Dichromothrips corbetti): at least 75%; mortality (Nephotettix virescens): at least 75% |
| O=C(O)c1ccc(C2=NSC(c3cc(Cl)c(Cl)c(Cl)c3)(C(F)(F)F)C2)cc1 (stereo not shown) [Compound 2-177] | at least 75% | at least 75% | – | – | – |
| Cc1cc(C2=NSC(c3cc(Cl)cc(Cl)c3)(C(F)(F)F)C2)ccc1C(=O)O (stereo not shown) [Compound 2-156] | at least 75% | – | – | – | – |
| Cc1cc(C2=NSC(c3cc(Cl)cc(Cl)c3)(C(F)(F)F)C2)ccc1C=NNC(N)=O (stereo not shown) [Compound 1-6] | – | – | – | – | mortality (Ceratitis capitata): at least 75%; mortality (Plutella xylostella): at least 75% |
| CC(C)(C)OC(=O)c1ccc(C2=NSC(c3cc(Cl)c(Cl)c(Cl)c3)(C(F)(F)F)C2)cc1 (stereo not shown) [Compound 2-175] | at least 75% | – | – | – | – |
| Cc1cc(C2=NSC(c3cc(Cl)c(Cl)c(Cl)c3)(C(F)(F)F)C2)ccc1C(=O)O (stereo not shown) [Compound 2-157] | at least 75% | – | at least 75% | – | – |

— patent US9732051B2, “Isothiazoline compounds for combating invertebrate pests” (BASF SE, priority 2011, dated 2017)
